According to PubChem BioAssay AID504467 (National Center for Advancing Translational Sciences (NCATS), 2011):
Hit rate of the full screen: of about 330,000 compounds, about 7,700 (2.3%) were called active. The inconclusive results got no clear call from the source; some entries with a clear call stand among them for comparison. The call rests on the fitted dose curve; in most records, active means well fitted inhibition curve with a large enough effect; inconclusive means small, poorly fitted or top-dose-only effect, or effect the other way; inactive means flat fitted curve, though single readings scatter. A potency beside an inconclusive call is a rough fit, not a confirmed value.

Test: qHTS screen for small molecules that inhibit ELG1-dependent DNA repair in human embryonic kidney (HEK293T) cells expressing luciferase-tagged ELG1; further: nearly all actives have a fitted effect of over 55% in size
Conditions: HEK293T ELG1-luciferase reporter, luminescence, 16 h, DNA damage induced by 5-fluorouridine; series mostly up to 46.1 µM
Procedure, shortened: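 Overnight (16 hr) co-exposure of 2,000 cells/well to 5-fluorouridine and compound at 37 °C preceded detection. Luciferase was quantified via ONE-Glo luminescence; loss of signal denotes inhibition.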
Potency means the concentration at half of the fitted maximal effect.

SMILES	Potency
CCOC(=O)N1CCN(Cc2nc(N)nc(Nc3ccc(Oc4ccccc4)cc3)n2)CC1	active: 11.6 µM
S=c1[nH]c(-c2ccccc2)cn1/N=C/c1cccs1	inconclusive: 14.6 µM [activator, partial curve, poor fit]
Cc1ccc(C(=O)N/N=C\c2cc(Br)c(Br)o2)cn1	inconclusive: 13 µM [inhibitor, partial curve]
N#Cc1ccc(C(=O)NC23CC4CC(CC(C4)C2)C3)cc1	inactive
CCNC(=O)COC(=O)c1cccc(Br)c1	inconclusive: 16.4 µM [activator, partial curve, poor fit]
CN(C)/C=C1/Nc2ccccc2C1=O	inconclusive: 14.6 µM [activator, partial curve]
Cn1c(=S)ccc2ccccc21	inactive
O=C(NC(=S)Nc1ccc(Br)cn1)c1cccnc1	inconclusive: 20.6 µM [activator, single point]
O=S(=O)(c1cccs1)N1CCCc2ccccc21	inactive
COc1ccc(/C=N/NC(=O)c2cc3c(OC)ccc(OC)c3[nH]2)cc1O	inconclusive: 18.3 µM [inhibitor, single point]
CCCc1cc(C(=O)NCC(C)C)no1	inconclusive: 16.4 µM [activator, partial curve]
O=C(N/N=C/c1ccc(-c2ccccc2Cl)o1)c1ccccc1	inactive
C=CCn1cc(C(C)=O)c(=O)[nH]c1=O	inactive
Cc1cccc(NC(=O)c2cnc3n(c2=O)CCS3)c1	inconclusive: 11.6 µM [activator, partial curve]
CSc1ccc(CCNC(=O)CCc2nnc3ccc(N4CCC5(CC4)OCCO5)nn23)cc1	active: 9.2 µM
COc1ccc(C(=O)NC(=S)Nc2ccc(N3CCOCC3)c(Cl)c2)cc1[N+](=O)[O-]	active: 13 µM
COc1ccccc1CN1CC(C(=O)NCc2cc(F)cc(C(F)(F)F)c2)CCC1=O (stereo not drawn)	inactive
Cc1ccccc1C(=O)Nc1cccc(-c2cn3ccccc3n2)c1	inconclusive: 29.1 µM [inhibitor, single point]
c1ccc2[nH]c(NN=C3CCCCCC3)nc2c1	inconclusive: 11.6 µM [activator, partial curve]
c1cncc(-c2nc(N3CCCCCC3)c3ccccc3n2)c1	inconclusive: 18.4 µM [inhibitor, single point]
CN(C)CCC1c2ccc(Cl)cc2CCc2cccnc21 (stereo not drawn) (tested in a mixture with another compound)	inconclusive: 6.51 µM [inhibitor, single point]
O=S(=O)(c1cccs1)N1CCN(CC(O)COc2cccc(Br)c2)CC1 (stereo not drawn)	active: 20.6 µM
CCn1c(C)nnc1SCC(=O)NC1CCCCCC1	inconclusive: 29.1 µM [activator, partial curve, poor fit]
CCCCn1c(N)c(N(CC)C(=O)c2cc(CC)c(C)s2)c(=O)[nH]c1=O	inactive
COc1ccccc1CNC(=O)c1ccccc1C(=O)NC(CC(C)C)C(=O)NCc1ccccc1OC (stereo not drawn)	active: 20.6 µM

Sorted by molar mass (low to high): part of the list above
SMILES	Potency
C=CCn1cc(C(C)=O)c(=O)[nH]c1=O	inactive
CCNC(=O)COC(=O)c1cccc(Br)c1	inconclusive: 16.4 µM [activator, partial curve, poor fit]
Cc1cccc(NC(=O)c2cnc3n(c2=O)CCS3)c1	inconclusive: 11.6 µM [activator, partial curve]

Additional compounds.

SMILES	Potency
Cc1ccc(NC(=O)CCC(=O)c2cccs2)c(O)c1	inconclusive: 18.3 µM [activator, partial curve]
CCCCN(C(=O)c1ccccc1OCc1ccc(F)cc1)c1c(N)n(CC(C)C)c(=O)[nH]c1=O	inactive
Cc1cc(OCCCCOc2ccc(S(N)(=O)=O)c(C)c2)ccc1S(N)(=O)=O	inactive
CCCn1ncc2c(Nc3ccc(C)c(C)c3)ncnc21	inconclusive: 16.4 µM [activator, partial curve]
Cn1c(N)c(C(=O)COC(=O)CC(NC(=O)c2ccccc2Cl)c2ccccc2)c(=O)n(C)c1=O (stereo not drawn)	inactive
CC(C)N1C(=O)/C(=C/c2nc3ccccc3c(=O)n2-c2ccccc2)c2ccccc21	active: 20.6 µM
Cc1ccccc1C(=O)O/N=C(\N)c1cccc([N+](=O)[O-])c1	inconclusive: 10.3 µM [activator, partial curve]
O=[N+]([O-])c1ccccc1N/N=C/c1cc2ccccc2nc1Cl	inconclusive: 11.6 µM [activator, partial curve]
Cc1ccc(C2=NN(C(=O)CCl)C(c3cccs3)C2)o1 (stereo not drawn)	inconclusive: 10.3 µM [inhibitor, partial curve]
COc1cc(/C=C/C(=O)OCC(=O)N2CCN(S(=O)(=O)c3ccc(C)cc3C)CC2)ccc1O	active: 20.6 µM
CCOC(=O)N1CC=C2C(C#N)=C(N)C(C#N)(C#N)[C@H](c3cccs3)C2C1 (stereo partly drawn)	inconclusive: 23.1 µM [inhibitor, partial curve, poor fit]
Cc1nn(C)c(=O)n1-c1ccc(Oc2ccccc2)cc1	inactive
c1ccc(CNc2nc(NCc3ccco3)nc(N3CCOCC3)n2)cc1	inconclusive: 29.1 µM [inhibitor, single point]
CCOc1ccc(NC(=O)CNC(=O)c2nn(-c3ccc(OC)cc3)c(=O)c3ccccc23)cc1	inconclusive: 6.51 µM [inhibitor, single point]
O=C(Nc1nc2cc3c(cc2s1)OCCO3)c1cccs1	inconclusive: 0.231 µM [activator, full curve]
COCCn1c(SCc2ccc(C(=O)OC)o2)nc2cc(Cl)ccc2c1=O	inconclusive: 29.1 µM [inhibitor, single point]
COCCN(C(=O)COC(=O)CCOc1cccc(C)c1)c1c(N)n(Cc2ccccc2)c(=O)[nH]c1=O	inactive
Cc1ccc(NC(=O)C2CCN(S(=O)(=O)c3cccc4cccnc34)CC2)nc1	inconclusive: 20.6 µM [inhibitor, single point]
CCOC(=O)C1(Cc2cccc(Cl)c2)CCCN(C(=O)c2ccco2)C1 (stereo not drawn)	inconclusive: 29.1 µM [activator, single point]
O=C(COC(=O)/C=C/c1ccc(OC(F)F)cc1)Nc1cccc(S(=O)(=O)N2CCCC2)c1	inactive
CC1(C)N=C(N)N=C(N)N1c1ccc(C(=O)O)cc1	inactive
COc1cccc(OC)c1OC(=O)/C=C/c1ccc(C)o1	inconclusive: 20.6 µM [activator, single point]
CC1CCCCC12NC(=S)N(c1ccccc1)N2 (stereo not drawn)	inconclusive: 20.6 µM [inhibitor, single point]
C/C(=N\NC(=O)c1cccc([N+](=O)[O-])c1)c1ccncc1	inactive
COc1ccc(S(=O)(=O)N2CC=C(C(=O)Nc3ccc(NC(C)=O)cc3)CC2)cc1	inactive

SMILES	Potency
Fc1cccc(Cl)c1Cn1nnc(-c2ccc(N3CCOCC3)cc2)n1	inconclusive: 1.16 µM [activator, single point]
Nc1nc(CN2CCN(c3ccccc3F)CC2)nc(Nc2ccc3c(c2)OCCO3)n1	active: 23.1 µM
Cc1ccccc1-n1nc2c(c1NC(=O)c1ccco1)CS(=O)(=O)C2	inactive
CCc1nc(Nc2ccc(OC)c(OC)c2)c2nnn(Cc3ccccc3Cl)c2n1	active: 13 µM
CC(=O)NC1=NN(C(C)=O)C(C)(c2cccnc2)S1 (stereo not drawn)	inactive
CCCc1cc(=O)oc2cc(C)cc(OCC(=O)NC(Cc3c[nH]c4ccc(O)cc34)C(=O)O)c12 (stereo not drawn)	inconclusive: 1.46 µM [inhibitor, partial curve, poor fit]
COC(=O)c1[nH]c2ccc(C)cc2c1NC(=O)C1=COCCO1	inactive
CC(C)C1Cc2c(sc(NC(=S)NC(=O)c3ccccc3)c2C#N)CO1 (stereo not drawn)	inactive
Cn1c(-c2ccccc2)c(C=O)c2ccccc21	inconclusive: 18.3 µM [activator, partial curve, poor fit]
CC(C)C[C@H](NC(=O)c1[nH]cnc1C(=O)Nc1ccc(CNC(=O)OC(C)(C)C)cc1)C(=O)OC(C)(C)C	inconclusive: 20.6 µM [inhibitor, single point]
CC(C)(C)c1nnc(NC(=O)c2ccc3c(c2)OCO3)s1	inconclusive: 8.2 µM [activator, partial curve]
NS(=O)(=O)c1ccc(NC(=O)CSc2cn[nH]n2)cc1	inactive
COCCCNC(=S)N1CCC(C(=O)c2ccc3c(c2)OCCO3)CC1	inconclusive: 18.3 µM [inhibitor, single point]
Brc1cc(Br)c2nc(-c3ccc(N4CCOCC4)cc3)ccc2c1	inconclusive: 11.6 µM [activator, partial curve, poor fit]
Cc1ccc2c(c1)c(C)c(C)n2CC(O)Cn1nnc2ccccc21 (stereo not drawn)	inconclusive: 11.6 µM [activator, partial curve]
COc1ccc(-c2nnn(CC(=O)N(CC(=O)NCCC(C)C)c3ccccc3)n2)cc1OC	inconclusive: 0.0046 µM [activator, full curve, poor fit]
Cc1cc2ncn(CC(O)COC3CCCCC3)c2cc1C (stereo not drawn)	inconclusive: 18.4 µM [inhibitor, single point]
COc1ccc(NC(=O)CN(C)CC(=O)NC2CCCCC2C)cc1 (stereo not drawn)	inactive
C=C1CCN([C@H](C(=O)NCc2ccc(Cl)c(Cl)c2)C(C)C)S(=O)(=O)c2ccccc21	inconclusive: 13 µM [inhibitor, partial curve, poor fit]
CCCCCCc1cc2cc(S(=O)(=O)c3ccc(F)cc3)c(=O)oc2cc1O	inactive
Cc1nc(-c2ccc(C(=O)Nc3cccc(Br)c3)cc2)cs1	inconclusive: 1.3 µM [activator, full curve]
CCN(CC)Cc1c[nH]c2c(C(=O)OC)cccc12	inconclusive: 13 µM [activator, partial curve, poor fit]
CCC(=O)NNc1ncnc2c1cnn2-c1cccc(C)c1	inactive
